The record followed here is article PMC12715260.

By UniProt entry, the sequences of proteins in these tests, tags left out.
UniProt P63158: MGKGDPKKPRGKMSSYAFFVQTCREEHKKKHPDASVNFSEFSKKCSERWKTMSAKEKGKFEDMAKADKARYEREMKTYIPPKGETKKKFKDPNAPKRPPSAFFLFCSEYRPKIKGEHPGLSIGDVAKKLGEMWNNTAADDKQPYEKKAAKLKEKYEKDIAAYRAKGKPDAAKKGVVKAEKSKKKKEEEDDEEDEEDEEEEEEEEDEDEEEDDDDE

These are yes or no findings as the source states them, for the method shown. In cells and extracts the contact can be indirect. A yes stands for co-enrichment or nearness to the bait. Other partners may have been found.

The assay concerns the target T1, solute carrier family 7 member 11 (SLC7A11), endogenous in MDSCs (mouse (endogenous in bone marrow-derived MDSCs of C57BL/6J mice)) (UniProt Q9WTR6).
T1 sequence: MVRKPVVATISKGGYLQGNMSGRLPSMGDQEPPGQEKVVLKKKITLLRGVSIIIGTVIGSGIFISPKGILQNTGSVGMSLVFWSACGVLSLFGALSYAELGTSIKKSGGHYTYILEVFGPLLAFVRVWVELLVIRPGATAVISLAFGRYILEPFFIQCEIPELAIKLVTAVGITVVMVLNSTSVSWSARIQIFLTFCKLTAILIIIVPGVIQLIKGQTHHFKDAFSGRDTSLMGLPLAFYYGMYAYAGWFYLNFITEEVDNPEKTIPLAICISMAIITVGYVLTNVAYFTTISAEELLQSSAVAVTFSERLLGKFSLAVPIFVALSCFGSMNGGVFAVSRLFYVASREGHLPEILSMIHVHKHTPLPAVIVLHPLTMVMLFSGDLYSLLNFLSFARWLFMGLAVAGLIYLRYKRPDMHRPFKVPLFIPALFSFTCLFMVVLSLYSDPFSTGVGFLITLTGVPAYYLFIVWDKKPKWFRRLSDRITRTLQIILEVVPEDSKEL
Put plainly: affinity purification with mass spectrometry; IP with anti-SLC7A11 (Abcam ab175186; Capturem IP & Co-IP Kit) from MDSCs treated with heat-inactivated A. fumigatus (MOI = 2) for 24 h, unstimulated MDSCs as control; SDS-PAGE gel slices, LC-MS/MS.

With “High Mobility Group Box 1 (HMGB1), endogenous in MDSCs (from UniProt P63158 1-215)”, the binding result is listed as “binds”.
